Measured values published in patent US20100183524A1, “ANTIOXIDANT COMPOSITIONS FOR SOFT ORAL TISSUE AND METHODS OF FORMULATION AND USE THEREOF” (Perio Sciences, LLC, priority 2008, published 2010).

What was measured:
[1] = system: Caspase 3 activity in human periodontal ligament (HPDL) cells; assay: Apoptosis assay (Caspase 3 activity), HPDL; type: cell-based; details: Staurosporine 1 μM alone or with DEVD-Z-VAD-FMK 50 μM
Method: (§1) Caspases are a family of proteases that mediate apoptosis. […] Cells were then washed with PBS and 50 μL of lysis buffer was added to each well. Cells were lysed using freeze-thaw cycles at -20° C. overnight. Cell lysates were then incubated for 15 minutes on ice and centrifuged at 15,000 g for 20 minutes. Then the amount of liberated pNA was detected, indicating the about of caspase activity.

[2] = system: Caspase 3 activity in human gingival fibroblasts (HGF); assay: Apoptosis assay (Caspase 3 activity), HGF; type: cell-based; details: Staurosporine 1 μM alone or with DEVD-Z-VAD-FMK 50 μM
Method: as §1

`CN[C@@H]1C[C@H]2O[C@@](C)([C@@H]1OC)n1c3ccccc3c3c4c(c5c6ccccc6n2c5c31)C(=O)NC4` [st, Staurosporine] was tested, and the “Caspase Activity in HPDL, apoptosis inducer / inhibitor controls” value [1] was 153 and the “Caspase Activity in HGF, apoptosis inducer / inhibitor controls” value [2] was 208.
